Among the data in article PMC11335278 are binding values, retold here.

Protein sequences, listed by entry. Tags and fused reporters are not part of them. Residues count along the entry.
UniProt P27986, residues 79-333: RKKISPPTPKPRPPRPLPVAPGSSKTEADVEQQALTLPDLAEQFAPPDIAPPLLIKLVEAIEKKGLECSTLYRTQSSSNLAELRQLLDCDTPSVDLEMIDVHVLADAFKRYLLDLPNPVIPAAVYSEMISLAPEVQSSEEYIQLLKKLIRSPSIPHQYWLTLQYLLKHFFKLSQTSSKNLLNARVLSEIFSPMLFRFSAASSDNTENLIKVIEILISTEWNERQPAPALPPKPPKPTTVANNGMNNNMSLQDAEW
UniProt Q63788: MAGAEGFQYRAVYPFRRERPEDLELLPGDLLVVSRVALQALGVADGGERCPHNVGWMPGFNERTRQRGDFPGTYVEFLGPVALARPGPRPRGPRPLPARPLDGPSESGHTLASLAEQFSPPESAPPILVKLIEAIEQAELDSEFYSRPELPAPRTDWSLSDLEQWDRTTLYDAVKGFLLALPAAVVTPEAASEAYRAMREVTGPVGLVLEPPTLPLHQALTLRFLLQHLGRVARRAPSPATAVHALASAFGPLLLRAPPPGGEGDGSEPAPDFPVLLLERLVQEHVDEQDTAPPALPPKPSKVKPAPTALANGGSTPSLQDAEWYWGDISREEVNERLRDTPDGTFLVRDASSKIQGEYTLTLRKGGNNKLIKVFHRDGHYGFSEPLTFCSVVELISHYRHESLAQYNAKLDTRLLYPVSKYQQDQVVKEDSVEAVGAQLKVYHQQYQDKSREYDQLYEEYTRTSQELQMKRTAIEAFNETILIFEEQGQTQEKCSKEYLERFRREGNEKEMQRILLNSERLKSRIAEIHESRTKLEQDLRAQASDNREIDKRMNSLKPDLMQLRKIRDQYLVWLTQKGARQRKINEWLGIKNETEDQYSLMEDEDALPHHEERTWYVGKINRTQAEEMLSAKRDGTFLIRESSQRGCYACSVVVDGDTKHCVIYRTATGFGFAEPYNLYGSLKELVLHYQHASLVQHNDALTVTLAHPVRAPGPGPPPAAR
UniProt Q8CFN2: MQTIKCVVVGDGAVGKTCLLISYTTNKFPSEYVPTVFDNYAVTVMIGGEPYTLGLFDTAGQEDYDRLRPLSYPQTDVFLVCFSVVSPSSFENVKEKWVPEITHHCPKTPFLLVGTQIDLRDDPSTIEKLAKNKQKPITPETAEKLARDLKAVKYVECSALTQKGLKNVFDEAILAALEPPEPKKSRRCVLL

Results are given in words; binding and its absence hold for the method and conditions named. In cells and extracts the contact can be indirect. Some results given as binding are weak or reduced against the parent protein; the word gives no strength.

In test [1] the target is p110α catalytic subunit of PI3K (rat (endogenous in hippocampal neurons)). The experiment in a line: co-IP; anti-p110α antibody and Protein G Sepharose from hippocampal extracts (20 mM Tris-HCl pH 7.5, 150 mM NaCl, 1% Triton X-100, 1 mM EGTA, 1 mM EDTA, 5 mM MgCl2); neurons infected with shp85α (L + S) or shp85β; Western blot.
The target in test [2] is GST fused to the BH domain of p85α (UniProt P27986). Description: pull-down; as a1, but lysates incubated with 10 mM EDTA (40 min, room temperature), then 1 mM GDP with 60 mM MgCl2 (1 h on ice): inactive form of the GTPase; only the target purified.
In test [3] the target is GST fused to the BH domain of p85β (UniProt O00459). Described as above.
Test [4] has as its target GST fused to the BH domain of p85α (UniProt P27986). The experiment in a line: pull-down; as a1, but lysates incubated with 10 mM EDTA (40 min, room temperature), then 0.1 mM GMP-PNP with 60 mM MgCl2 (1 h on ice): active form of the GTPase; only the target purified.
Test [5] has as its target GST fused to the BH domain of p85β (UniProt O00459). The test is described as above.
The target in test [6] is GST fused to the BH domain of p85α (UniProt P27986). Description: pull-down; GST fusion protein on glutathione beads as bait, 50 µg lysate, 1 h at 4 °C; lysis buffer 20 mM Tris-HCl pH 7.5, 150 mM NaCl, 1% Triton X-100, 1 mM DTT, 10 mM MgCl2; extracts without nucleotide incubation; Western blot for Rac1 and Cdc42; only the target purified.
In test [7] the target is GST fused to the BH domain of p85β (UniProt O00459). The test is described as above.

As for “p85β regulatory subunit of PI3K (from UniProt Q63788 1-722)”, the binding result in test [1] is listed as “binds”.

Take “p85α regulatory subunit of PI3K (from UniProt Q63787-1 1-724)”: in test [1], the binding result is recorded as “binds”.

On to Cdc42 (from UniProt Q8CFN2 1-191), for which the binding result in test [2] is recorded as “binds”; in test [3] it was “binds”; in test [4] it was “binds”; in test [5], “binds”; in test [6], “binds weakly”; in test [7] it was “binds weakly”.
